Measurements: PMC10545676
Results are given in words; binding and its absence hold for the method and conditions named. Binding seen in cells or lysates may run through a third protein. Some results given as binding are weak or reduced against the parent protein; the word gives no strength.

Chains of the proteins cited; added tags and fusions are not shown. Residues count along the entry.
UniProt P07996, residues 19-1170: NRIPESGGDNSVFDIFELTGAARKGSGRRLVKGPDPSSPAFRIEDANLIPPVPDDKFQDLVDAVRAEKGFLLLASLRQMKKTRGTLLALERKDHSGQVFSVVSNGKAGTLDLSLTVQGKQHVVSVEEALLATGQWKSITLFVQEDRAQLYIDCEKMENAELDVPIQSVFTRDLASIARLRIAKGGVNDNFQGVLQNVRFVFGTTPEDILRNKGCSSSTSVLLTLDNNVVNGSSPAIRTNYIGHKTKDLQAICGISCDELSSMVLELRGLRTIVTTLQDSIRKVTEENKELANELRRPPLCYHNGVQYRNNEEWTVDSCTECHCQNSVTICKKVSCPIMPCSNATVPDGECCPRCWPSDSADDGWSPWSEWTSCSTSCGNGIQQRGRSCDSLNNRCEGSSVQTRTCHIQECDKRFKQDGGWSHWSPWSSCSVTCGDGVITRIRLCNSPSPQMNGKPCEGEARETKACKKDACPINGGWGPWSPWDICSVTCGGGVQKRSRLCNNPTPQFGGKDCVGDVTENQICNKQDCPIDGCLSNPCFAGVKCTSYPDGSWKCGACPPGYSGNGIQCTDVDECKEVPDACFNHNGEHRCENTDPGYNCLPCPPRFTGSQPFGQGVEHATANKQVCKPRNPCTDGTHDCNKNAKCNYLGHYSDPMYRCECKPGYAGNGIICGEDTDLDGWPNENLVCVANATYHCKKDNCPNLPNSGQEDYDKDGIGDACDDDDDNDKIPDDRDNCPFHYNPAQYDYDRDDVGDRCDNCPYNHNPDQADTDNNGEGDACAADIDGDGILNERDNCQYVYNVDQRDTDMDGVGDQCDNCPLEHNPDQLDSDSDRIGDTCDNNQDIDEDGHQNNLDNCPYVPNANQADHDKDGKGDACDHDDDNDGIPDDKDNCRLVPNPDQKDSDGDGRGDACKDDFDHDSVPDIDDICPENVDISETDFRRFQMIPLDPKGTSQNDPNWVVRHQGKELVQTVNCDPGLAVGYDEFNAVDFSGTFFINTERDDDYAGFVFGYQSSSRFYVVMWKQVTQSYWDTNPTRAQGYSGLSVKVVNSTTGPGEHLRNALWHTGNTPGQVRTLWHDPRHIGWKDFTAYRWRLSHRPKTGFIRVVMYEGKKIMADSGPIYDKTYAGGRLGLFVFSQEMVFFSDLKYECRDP
UniProt P35441, residues 19-1170: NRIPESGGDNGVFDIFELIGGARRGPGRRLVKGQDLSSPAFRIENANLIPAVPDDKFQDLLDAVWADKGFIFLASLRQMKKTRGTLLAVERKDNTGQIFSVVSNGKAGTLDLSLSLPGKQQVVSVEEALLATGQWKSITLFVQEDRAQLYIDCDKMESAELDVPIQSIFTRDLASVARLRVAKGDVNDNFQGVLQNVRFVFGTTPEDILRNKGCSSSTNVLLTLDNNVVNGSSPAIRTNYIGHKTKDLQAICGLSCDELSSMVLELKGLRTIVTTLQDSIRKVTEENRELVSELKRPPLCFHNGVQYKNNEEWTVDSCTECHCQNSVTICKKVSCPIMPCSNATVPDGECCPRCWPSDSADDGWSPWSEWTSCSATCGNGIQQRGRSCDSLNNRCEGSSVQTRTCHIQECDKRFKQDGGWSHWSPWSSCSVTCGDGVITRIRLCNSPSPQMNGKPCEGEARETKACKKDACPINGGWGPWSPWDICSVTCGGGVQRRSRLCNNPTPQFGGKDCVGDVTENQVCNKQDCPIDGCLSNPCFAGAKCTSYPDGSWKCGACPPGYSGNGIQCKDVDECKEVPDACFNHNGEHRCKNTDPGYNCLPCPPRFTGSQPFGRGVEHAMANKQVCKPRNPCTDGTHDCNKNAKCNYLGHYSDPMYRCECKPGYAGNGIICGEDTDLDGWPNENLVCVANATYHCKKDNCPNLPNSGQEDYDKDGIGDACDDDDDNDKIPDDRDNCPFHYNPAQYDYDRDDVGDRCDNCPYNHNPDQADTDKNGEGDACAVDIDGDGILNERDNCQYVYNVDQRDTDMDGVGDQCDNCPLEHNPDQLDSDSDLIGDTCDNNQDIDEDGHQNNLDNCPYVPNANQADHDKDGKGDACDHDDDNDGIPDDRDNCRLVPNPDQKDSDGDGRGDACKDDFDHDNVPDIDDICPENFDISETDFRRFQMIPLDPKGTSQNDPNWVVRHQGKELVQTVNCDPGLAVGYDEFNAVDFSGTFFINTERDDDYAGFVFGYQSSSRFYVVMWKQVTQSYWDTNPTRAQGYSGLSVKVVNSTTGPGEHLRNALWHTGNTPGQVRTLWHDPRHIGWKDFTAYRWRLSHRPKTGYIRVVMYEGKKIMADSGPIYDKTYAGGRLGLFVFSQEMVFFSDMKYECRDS
UniProt Q14457: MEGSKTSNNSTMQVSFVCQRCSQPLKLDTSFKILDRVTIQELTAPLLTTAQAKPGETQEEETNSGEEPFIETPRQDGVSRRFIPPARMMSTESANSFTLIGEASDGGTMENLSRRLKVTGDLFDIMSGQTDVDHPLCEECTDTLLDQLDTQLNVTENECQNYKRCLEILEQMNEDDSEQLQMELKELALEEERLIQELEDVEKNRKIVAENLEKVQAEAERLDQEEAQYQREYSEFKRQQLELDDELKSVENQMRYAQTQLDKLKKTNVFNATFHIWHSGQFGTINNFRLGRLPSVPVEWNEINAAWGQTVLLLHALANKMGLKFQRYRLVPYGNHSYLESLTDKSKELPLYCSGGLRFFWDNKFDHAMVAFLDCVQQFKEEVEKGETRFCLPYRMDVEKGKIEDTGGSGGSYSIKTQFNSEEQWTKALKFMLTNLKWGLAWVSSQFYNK

Legend:
[1] = biological target: Thrombospondin 1 (THBS1) (human (endogenous in BEAS-2B)) (UniProt P07996); experiment: proximity ligation; Duolink PLA in fixed BEAS-2B cells with anti-THBS1 and anti-BECN1 antibodies
[2] = biological target: THBS1 overexpressed from adenovirus (ad-THBS1) (mouse) (UniProt P35441); experiment: co-IP; BEAS-2B lysates in IP buffer, protein A/G agarose beads and anti-tag antibody overnight at 4 °C, washed with NaCl buffer, Western blot; cells under control, LPS + CIH, LPS + CIH + Ang-(1-7) or ad-THBS1 conditions; which protein was precipitated is not told
[3] = biological target: Thrombospondin 1 (THBS1) (human (endogenous in BEAS-2B)) (UniProt P07996); experiment: as above

Measured: binding

Beclin 1 (BECN1) (from UniProt Q14457 1-450)
binds: all assays above
